Assay results taken from US20210322524A1.
Results are given in words; binding and its absence hold for the method and conditions named. For some of these results: In cells and extracts the contact can be indirect. Some results given as binding are weak or reduced against the parent protein; the word gives no strength. For some of these results: Tags and fused reporters may be left off the sequences shown.

Protein sequences, listed by entry. Tags and fused reporters are not part of them.
UniProt Q8K1M6: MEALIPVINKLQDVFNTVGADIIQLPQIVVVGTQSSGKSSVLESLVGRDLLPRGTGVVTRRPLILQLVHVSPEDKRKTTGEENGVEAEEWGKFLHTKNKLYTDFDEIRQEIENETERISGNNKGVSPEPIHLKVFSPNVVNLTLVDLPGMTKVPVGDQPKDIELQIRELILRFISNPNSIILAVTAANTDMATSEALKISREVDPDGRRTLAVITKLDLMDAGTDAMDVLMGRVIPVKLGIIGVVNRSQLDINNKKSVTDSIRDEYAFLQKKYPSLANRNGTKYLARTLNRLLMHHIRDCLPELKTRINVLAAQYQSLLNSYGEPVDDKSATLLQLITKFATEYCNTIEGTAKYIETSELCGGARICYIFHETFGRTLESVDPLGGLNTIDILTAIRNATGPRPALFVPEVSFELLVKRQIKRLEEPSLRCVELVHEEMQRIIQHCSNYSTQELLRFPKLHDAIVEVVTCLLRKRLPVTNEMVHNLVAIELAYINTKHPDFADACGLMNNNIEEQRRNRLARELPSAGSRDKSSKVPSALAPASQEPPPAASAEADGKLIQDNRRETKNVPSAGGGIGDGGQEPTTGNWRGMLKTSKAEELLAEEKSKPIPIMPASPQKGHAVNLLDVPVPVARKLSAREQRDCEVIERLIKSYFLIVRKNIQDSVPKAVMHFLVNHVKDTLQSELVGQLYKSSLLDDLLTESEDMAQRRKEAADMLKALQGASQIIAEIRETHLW

B1: ATAD3A-Flag protein (human ATAD3A wildtype, Flag-tagged), Q9NVI7 1-586 (protein, UniProt Q9NVI7 1-586, looked up, not shown: small tags and cut ends)
chain: MSWLFGINKGPKGEGAGPPPPLPPAQPGAEGGGDRGLGDRPAPKDKWSNFDPTGLERAAKAARELEHSRYAKDALNLAQMQEQTLQLEQQSKLKEYEAAVEQLKSEQIRAQAEERRKTLSEETRQHQARAQYQDKLARQRYEDQLKQQQLLNEENLRKQEESVQKQEAMRRATVEREMELRHKNEMLRVEAEARARAKAERENADIIREQIRLKAAEHRQTVLESIRTAGTLFGEGFRAFVTDWDKVTATVAGLTLLAVGVYSAKNATLVAGRFIEARLGKPSLVRETSRITVLEALRHPIQVSRRLLSRPQDALEGVVLSPSLEARVRDIAIATRNTKKNRSLYRNILMYGPPGTGKTLFAKKLALHSGMDYAIMTGGDVAPMGREGVTAMHKLFDWANTSRRGLLLFVDEADAFLRKRATEKISEDLRATLNAFLYRTGQHSNKFMLVLASNQPEQFDWAINDRINEMVHFDLPGQEERERLVRMYFDKYVLKPATEGKQRLKLAQFDYGRKCSEVARLTEGMSGREIAQLAVSWQATAYASEDGVLTEAMMDTRVQDAVQQHQQKMCWLKAEGPGRGDEPSPS
B2: ATAD3A (endogenous, mouse cells and mouse striatum) (protein, UniProt Q925I1 2-591, looked up)
chain: SWLFGIKGPKGEGTGPPLPLPPAQPGAEGGGDRGAGDRPSPKDKWSNFDPTGLERAAKAARELEHSRHAKEALSLAQMQEQTLQLEQQSKLKEYEAAVEQLKSEQIRVQAEERRKTLTEETRQHQARAQYQDKLARQRYEDQLKQQQLLNEENLRKQEESVQKQEAIRRATVEREMELRHKNEMLRVEAEARARAKADRENADIIREQIRLKAAEHRQTILESIRTAGTLLGEGFRAFVTDWDKVTATVAGLTLLAVGVYSAKNATSVAGRYIEARLGKPSLVRETSRISVLEALRHPIQVSRRLVSRPQDALEGVILSPSLEARVRDIAIATRNTKKNKSLYRNVLMYGPPGTGKTLFAKKLALHSGMDYAIMTGGDVAPMGREGVTAMHKVFDWASTSRRGLLLFVDEADAFLRKRATEKISEDLRATLNAFLHRTGQHSSKFMLVLASNQPEQFDWAINDRIDEMVCFALPQREERERLVRMYFDKYVLKPATEGKQRLKVAQFDYGKKCSEVAQLTEGMSGREIAQLAVAWQAMAYSSEDGVLTEAMMDARVQDAVQQHQQKMQWLKVERPDSQTNKPPHPSLLSC

Experiments:
[1] = target: T1, Drp1 (endogenous, human cells and tissue) (human), O00429; assay: IP of total lysates of transfected HEK293 cells; conditions: remark: other sources report otherwise
[2] = target: T1, Drp1 (endogenous, human cells and …); assay: IP analysis with truncated mutants; conditions: remark: other sources report otherwise
[3] = target: Drp1 (endogenous, mouse striatal cells and mouse striatum) (mouse) (UniProt Q8K1M6); assay: co-IP, mouse cells and striatal extracts (FIG. 1C-E)
[4] = target: Drp1 (endogenous, mouse striatal cells and mouse striatum) (mouse) (UniProt Q8K1M6); assay: immunoprecipitation of striatal lysates

| Binder | binding [1] | binding [2] | binding [3] | binding [4] |
| --- | --- | --- | --- | --- |
| B1 | binds | binds |  |  |
| B2 |  |  | binds | binds |
